Results are given in words; binding and its absence hold for the method and conditions named. For part of these data: Binding seen in cells or lysates may run through a third protein. Some binding calls cover weakened binding; strength is not graded here. Sequences can lack the tags named with a protein.
B1: FLAG-LCE1C (late cornified envelope 1C) (protein, UniProt Q5T751 1-118)
chain: MSCQQSQQQCQPPPKCTPKCPPKCPTPKCPPKCPPKCPPVSSCCSVSSGGCCGSSSGGSCGSSSGGCCSSGGGGCCLSHHRRRRSHCHRPQSSGCCSQPSGGSSCCGGGSGQHSGGCC
B2: Myc-LCE1C (protein, UniProt Q5T751 1-118)
chain: MSCQQSQQQCQPPPKCTPKCPPKCPTPKCPPKCPPKCPPVSSCCSVSSGGCCGSSSGGSCGSSSGGCCSSGGGGCCLSHHRRRRSHCHRPQSSGCCSQPSGGSSCCGGGSGQHSGGCC

Protein sequences, listed by entry. Tags and fused reporters are not part of them.
UniProt O14744: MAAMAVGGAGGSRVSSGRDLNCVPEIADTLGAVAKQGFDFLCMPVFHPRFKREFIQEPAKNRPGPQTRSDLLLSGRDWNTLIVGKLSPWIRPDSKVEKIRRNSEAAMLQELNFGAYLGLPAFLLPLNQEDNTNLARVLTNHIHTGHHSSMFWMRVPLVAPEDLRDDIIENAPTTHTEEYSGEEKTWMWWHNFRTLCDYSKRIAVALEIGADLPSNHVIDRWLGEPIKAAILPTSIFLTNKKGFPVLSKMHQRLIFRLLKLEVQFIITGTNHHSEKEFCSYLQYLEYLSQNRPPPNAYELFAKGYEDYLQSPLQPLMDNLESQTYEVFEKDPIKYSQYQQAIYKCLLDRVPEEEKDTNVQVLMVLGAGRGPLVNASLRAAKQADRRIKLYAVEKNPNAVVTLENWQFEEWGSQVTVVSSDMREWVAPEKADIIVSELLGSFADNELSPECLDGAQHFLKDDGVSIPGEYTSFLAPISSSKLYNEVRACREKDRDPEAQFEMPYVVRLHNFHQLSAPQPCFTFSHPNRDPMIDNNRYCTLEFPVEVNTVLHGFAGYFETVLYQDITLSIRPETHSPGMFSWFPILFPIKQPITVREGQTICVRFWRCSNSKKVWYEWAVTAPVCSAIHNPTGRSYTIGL

Columns and labels:
[1] = target: protein arginine methyltransferase 5 (PRMT5), endogenous (human (endogenous in 293T)) (UniProt O14744); test: co-IP; extract of 293T cells (legend; the text says U2OS) expressing FLAG-LCE1C; endogenous PRMT5; precipitating antibody not stated
[2] = target: FLAG-LCE1C (late cornified envelope 1C) (UniProt Q5T751); test: SDS-PAGE and Western blot of cell extract; extracts of 293T cells expressing FLAG-vector alone or FLAG-LCE1C; oligomer bands assigned from a linear plot of migration distance against molecular weight
FLAG-PRMT5 = FLAG-PRMT5 (UniProt O14744); test: co-IP; extract of 293T cells expressing Myc-LCE1C and/or FLAG-PRMT5; precipitating antibody not stated

| Binder | binding [1] | binding [2] | binding (FLAG-PRMT5) |
| --- | --- | --- | --- |
| B1 | binds weakly | binds |  |
| B2 |  |  | binds |
